Patent US20070197457A1
These are yes or no findings as the source states them, for the method shown. In cells and extracts the contact can be indirect. Binding calls can cover weak binding; strength is not graded here.

How the values were obtained:
Assay in all cases: co-immunoprecipitation from transfected HEK293T cells, Western blot
[1] = molecular target: SMAD1 (wild-type, full-length R-SMAD)
SMAD2 (wild-type R-SMAD) = molecular target: SMAD2 (wild-type R-SMAD)
SMAD4 (Co-SMAD) = molecular target: SMAD4 (Co-SMAD)
SMAD5 (wild-type R-SMAD) = molecular target: SMAD5 (wild-type R-SMAD)
SMAD6 (I-SMAD) = molecular target: SMAD6 (I-SMAD)
[2] = molecular target: SMAD7 (I-SMAD), full-length

Measured: binding

B1: wild-type TAK1 (TAK1wt), full-length murine TGF-beta activated kinase 1, long splice form (enzyme, mouse, UniProt Q62073 1-579, looked up, not shown: small tags and cut ends)
chain: MSTASAASSSSSSSASEMIEAPSQVLNFEEIDYKEIEVEEVVGRGAFGVVCKAKWRAKDVAIKQIESESERKAFIVELRQLSRVNHPNIVKLYGACLNPVCLVMEYAEGGSLYNVLHGAEPLPYYTAAHAMSWCLQCSQGVAYLHSMQPKALIHRDLKPPNLLLVAGGTVLKICDFGTACDIQTHMTNNKGSAAWMAPEVFEGSNYSEKCDVFSWGIILWEVITRRKPFDEIGGPAFRIMWAVHNGTRPPLIKNLPKPIESLMTRCWSKDPSQRPSMEEIVKIMTHLMRYFPGADEPLQYPCQYSDEGQSNSATSTGSFMDIASTNTSNKSDTNMEQVPATNDTIKRLESKLLKNQAKQQSESGRLSLGASRGSSVESLPPTSEGKRMSADMSEIEARIVATAAYSKPKRGHRKTASFGNILDVPEIVISGNGQPRRRSIQDLTVTGTEPGQVSSRSSSPSVRMITTSGPTSEKPARSHPWTPDDSTDTNGSDNSIPMAYLTLDHQLQPLAPCPNSKESMAVFEQHCKMAQEYMKVQTEIALLLQRKQELVAELDQDEKDQQNTSRLVQEHKKLLDENKSLSTYYQQCKKQLEVIRSQQQKRQGTS
binds: all assays above
